{"source": "the supplement of paper PMC10032668", "assay_in_all_cases": "PRISMA enrichment of interactor (LFQ) in peptide spot vs all other peptide spots (log2 fold change); higher = stronger / more specific binding of the interactor to the peptide", "key": {"AASDHPPT, Q9NRN7": {"molecular_target": "AASDHPPT, Q9NRN7", "experimental": "(§1)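 PRISMA: 221 full-length sORF-encoded peptides (3-15 aa), plus SOS1/GLUT1 control peptides, were spot-synthesized on cellulose membranes in triplicate. Membranes were incubated with HEK293T lysate, and bound proteins were identified by LC-MS/MS with LFQ. Enrichment is the log2 fold change versus all other peptide spots; only significant interactors are listed (cutoff c=6, x0=2.8).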"}, "FDX1, P10109": {"molecular_target": "FDX1, P10109", "experimental": "as §1"}, "LTF, P02788": {"molecular_target": "LTF, P02788", "experimental": "as §1"}, "SAPCD2, Q86UD0": {"molecular_target": "SAPCD2, Q86UD0", "experimental": "as §1"}, "SPTSSA, Q969W0": {"molecular_target": "SPTSSA, Q969W0", "experimental": "as §1"}}, "note": "The list shows a part of the results. Only hits are listed; about a third recur on repeated control peptides.", "data": [{"binder": "MAAGAR", "note": "[NUS1]", "values": [{"measurement": "PRISMA enrichment of interactor (log2)", "setting": "AASDHPPT, Q9NRN7", "result": 3.98}, {"measurement": "PRISMA enrichment of interactor (log2)", "setting": "FDX1, P10109", "result": 4.4}, {"measurement": "PRISMA enrichment of interactor (log2)", "setting": "LTF, P02788", "result": 7.32}, {"measurement": "PRISMA enrichment of interactor (log2)", "setting": "SAPCD2, Q86UD0", "result": 7.76}, {"measurement": "PRISMA enrichment of interactor (log2)", "setting": "SPTSSA, Q969W0", "result": 9.15}]}]}
